This is an account of results in patent US7939098B2, “Compositions and method for transmucosal drug delivery and cryoprotection” (Femina Pharma Incorporated, priority 2002, dated 2011).

One data set concerns healthy female rabbits. The conditions noted are these: rabbit, in vivo. The protocol:
A 10 day, repeat dose, vaginal toxicity study was conducted in healthy female rabbits. Three doses and two controls were used. […] Doses of SUPPOCIRE® and SUPPOCIRE® plus ethoxydiglycol were used as controls. The study findings are summarized below.

The conditions of data set [1]: female, New Zealand white, rabbit, in vivo.
The next data set can be described thus: in vivo. The conditions noted are these: female, New Zealand white, rabbit.

SMILES strings stand for the structures. A value given as a limit tells only on which side of the number the result lay.

For orientation: AUC means the area under the concentration-time curve, a measure of exposure. The Cmax is the highest concentration seen after dosing. For orientation: Tmax means the time at which the peak concentration occurs. Regarding `NCCCC(O)(P(=O)(O)O)P(=O)(O)O` [alendronate], in the data set on healthy female rabbits, the “one-time vaginal dose in humans supported by toxicology results” value is at most 3 mg. The “share of the oral dose sufficient for vaginal administration to reach equivalent plasma concentrations” value in data set [1] was “approximately 7 % of the oral dose”. Further, the AUC in the data set “in vivo” (0.14 mg/kg) amounted to 180 ± 82.4 ng·h/mL; in “in vivo” (iv, 0.15 mg/kg), 653 ng·h/mL; in the data set “in vivo” (po, 0.22 mg/kg), 18.2 ± 12.1 ng·h/mL. Besides, the Cmax in “in vivo” (0.14 mg/kg) came out at 34 ± 14.4 ng/mL; in the data set “in vivo” (po, 0.22 mg/kg), 1.8 ± 1.2 ng/mL. For the same compound, the Tmax was around 0.5 h in the data set “in vivo” (0.14 mg/kg) and 4.8 ± 2 h in “in vivo” (po, 0.22 mg/kg).
